PMC10110466 (Nature biotechnology, 2022)
These are yes or no findings as the source states them, for the method shown.

Target: T1, soluble human IL-2Rβγ complex (human, UniProt P31785 23-262; P14784 27-240, biotin)
T1 sequence (looked up) 1: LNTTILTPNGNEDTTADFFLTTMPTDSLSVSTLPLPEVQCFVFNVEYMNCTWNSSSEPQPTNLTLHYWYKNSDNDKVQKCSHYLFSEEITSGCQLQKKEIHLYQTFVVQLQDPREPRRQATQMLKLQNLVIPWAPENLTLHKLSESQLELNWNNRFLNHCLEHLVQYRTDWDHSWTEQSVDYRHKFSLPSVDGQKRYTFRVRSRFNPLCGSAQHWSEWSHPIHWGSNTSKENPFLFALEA
T1 sequence (looked up) 2: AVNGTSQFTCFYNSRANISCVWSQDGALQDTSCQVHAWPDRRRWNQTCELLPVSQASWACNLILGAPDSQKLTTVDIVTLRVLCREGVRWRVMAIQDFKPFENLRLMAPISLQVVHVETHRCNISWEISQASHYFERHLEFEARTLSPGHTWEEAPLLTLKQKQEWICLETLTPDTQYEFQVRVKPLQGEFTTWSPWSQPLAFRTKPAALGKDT
Assay: BLI; biotinylated human IL-2Rγ on streptavidin sensors (Octet RED96), soluble hIL-2Rβ (250 nM in Fig. 1b) in solution with the analyte; analytes at 1 μM (Fig. 1b) or titrated (Extended Data Fig. 1); HBS-EP+ with non-fat dry milk; both purified

binding: no binding
Binder: PKKKIQLHAEHALYDALMILNIVKTNS [Neo2A]
